No constants are given. Whether binding was seen depends on the method and setting. In cells and extracts the contact can be indirect. Some binding calls cover weakened binding; strength is not graded here.
Target: T1, recombinant mouse Reg4 protein (mouse) (UniProt Q9D8G5)
T1 sequence: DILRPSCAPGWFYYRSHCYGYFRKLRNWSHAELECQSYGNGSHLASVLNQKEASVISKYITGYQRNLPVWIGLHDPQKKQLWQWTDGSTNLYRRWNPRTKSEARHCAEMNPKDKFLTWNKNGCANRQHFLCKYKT
Test: pull-down; called co-immunoprecipitation by the paper: 30 mg protein lysate from mouse pancreas incubated with rReg4 protein (100 µg/ml) at 4 °C overnight; captured on Ni-NTA-agarose, eluted; Western blot with anti-EXTL3, anti-REG4 and anti-His antibodies; only the target purified

binding: binds
B1: exostosin-like glycosyltransferase 3 (Extl3) (receptor, UniProt Q9WVL6 1-918)
chain: MTGYTMLRNGGVGNGGQTCMLRWSNRIRLTWLSFTLFIILVFFPLIAHYYLTTLDEADEAGKRIFGPRAGSELCEVKHVLDLCRIRESVSEELLQLEAKRQELNSEIAKLNLKIEACKKSIENAKQDLLQLKNVISQTEHSYKELMAQNQPKLSLPIRLLPEKDDAGLPPPKVTRGCRLHNCFDYSRCPLTSGFPVYVYDSDQFAFGSYLDPLVKQAFQATVRANVYVTENAAIACLYVVLVGEMQEPTVLRPADLEKQLFSLPHWRTDGHNHVIINLSRKSDTQNLLYNVSTGRHVAQSTFYAAQYRAGFDLVVSPLVHAMSEPNFMEIPPQVPVKRKYLFTFQGEKIESLRSSLQEARSFEEEMEGDPPADYDDRIIATLKAVQDSKLDQVLVEFTCKNQPKPSLPTEWALCGEREDRLELLKLSTFALIITPGDPHLLISSGCATRLFEALEVGAVPVVLGEQVQLPYHDMLQWNEAALVVPKPRVTEVHFLLRSLSDSDLLAMRRQGRFLWETYFSTADSIFNTVLAMIRTRIQIPAAPIREEVAAEIPHRSGKAAGTDPNMADNGDLDLGPVETEPPYASPKYLRNFTLTVTDCYRGWNSAPGPFHLFPHTPFDPVLPSEAKFLGSGTGFRPIGGGAGGSGKEFQAALGGNVQREQFTVVMLTYEREEVLMNSLERLNGLPYLNKVVVVWNSPKLPSEDLLWPDIGVPIMVVRTEKNSLNNRFLPWNEIETEAILSIDDDAHLRHDEIMFGFRVWREARDRIVGFPGRYHAWDIPHQSWLYNSNYSCELSMVLTGAAFFHKYYAYLYSYVMPQAIRDMVDEYINCEDIAMNFLVSHITRKPPIKVTSRWTFRCPGCPQALSHDDSHFHERHKCINFFVKVYGYMPLLYTQFRVDSVLFKTRLPHDKTKCFKFI
